Test results taken from paper PMC3836723.
Results are given in words; binding and its absence hold for the method and conditions named. Binding seen in cells or lysates may run through a third protein. Some results given as binding are weak or reduced against the parent protein; the word gives no strength.

Amino acid sequences for entries named in this document (tags omitted).
UniProt P05453: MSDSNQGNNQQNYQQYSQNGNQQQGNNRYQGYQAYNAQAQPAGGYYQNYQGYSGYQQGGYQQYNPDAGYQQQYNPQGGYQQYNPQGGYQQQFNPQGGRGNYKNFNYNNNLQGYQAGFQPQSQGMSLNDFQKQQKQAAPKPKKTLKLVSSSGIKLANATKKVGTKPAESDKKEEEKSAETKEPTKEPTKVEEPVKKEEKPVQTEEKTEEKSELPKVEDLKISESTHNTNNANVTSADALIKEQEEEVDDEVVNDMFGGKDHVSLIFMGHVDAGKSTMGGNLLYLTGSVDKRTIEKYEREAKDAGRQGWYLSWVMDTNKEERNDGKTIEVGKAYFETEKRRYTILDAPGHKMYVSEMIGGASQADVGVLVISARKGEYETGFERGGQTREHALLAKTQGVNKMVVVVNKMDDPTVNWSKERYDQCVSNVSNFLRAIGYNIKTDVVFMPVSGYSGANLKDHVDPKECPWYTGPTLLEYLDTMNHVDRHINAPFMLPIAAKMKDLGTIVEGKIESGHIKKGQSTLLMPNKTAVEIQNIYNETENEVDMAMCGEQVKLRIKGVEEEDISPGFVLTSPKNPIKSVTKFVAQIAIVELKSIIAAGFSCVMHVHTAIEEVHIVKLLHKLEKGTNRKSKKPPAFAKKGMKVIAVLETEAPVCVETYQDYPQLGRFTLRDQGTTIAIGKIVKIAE
UniProt Q03195: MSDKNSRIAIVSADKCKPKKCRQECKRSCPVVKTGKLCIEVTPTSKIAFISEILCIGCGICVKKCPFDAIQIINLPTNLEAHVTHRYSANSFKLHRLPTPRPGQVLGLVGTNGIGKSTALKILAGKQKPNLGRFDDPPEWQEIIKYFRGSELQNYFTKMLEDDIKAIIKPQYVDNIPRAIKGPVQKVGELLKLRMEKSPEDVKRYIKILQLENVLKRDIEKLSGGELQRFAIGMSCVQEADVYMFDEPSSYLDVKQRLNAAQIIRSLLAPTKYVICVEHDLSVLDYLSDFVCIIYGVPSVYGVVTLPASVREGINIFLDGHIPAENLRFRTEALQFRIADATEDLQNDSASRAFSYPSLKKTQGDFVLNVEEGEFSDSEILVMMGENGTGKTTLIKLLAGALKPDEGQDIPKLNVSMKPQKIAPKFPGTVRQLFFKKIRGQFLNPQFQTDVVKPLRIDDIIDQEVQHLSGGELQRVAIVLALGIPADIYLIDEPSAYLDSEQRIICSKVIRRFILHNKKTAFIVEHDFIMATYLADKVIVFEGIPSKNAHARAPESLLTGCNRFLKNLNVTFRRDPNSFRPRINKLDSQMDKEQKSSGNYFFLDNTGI
UniProt P32905: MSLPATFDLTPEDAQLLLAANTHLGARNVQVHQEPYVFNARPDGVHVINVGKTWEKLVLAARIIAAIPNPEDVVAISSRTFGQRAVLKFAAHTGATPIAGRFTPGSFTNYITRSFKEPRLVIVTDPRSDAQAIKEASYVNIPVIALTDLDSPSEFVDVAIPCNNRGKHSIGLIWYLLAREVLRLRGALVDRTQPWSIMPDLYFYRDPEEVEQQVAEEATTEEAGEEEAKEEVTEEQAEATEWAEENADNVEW
UniProt P32911: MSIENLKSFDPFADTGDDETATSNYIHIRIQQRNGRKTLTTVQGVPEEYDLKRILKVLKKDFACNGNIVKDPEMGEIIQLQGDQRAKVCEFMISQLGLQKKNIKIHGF
UniProt Q05775: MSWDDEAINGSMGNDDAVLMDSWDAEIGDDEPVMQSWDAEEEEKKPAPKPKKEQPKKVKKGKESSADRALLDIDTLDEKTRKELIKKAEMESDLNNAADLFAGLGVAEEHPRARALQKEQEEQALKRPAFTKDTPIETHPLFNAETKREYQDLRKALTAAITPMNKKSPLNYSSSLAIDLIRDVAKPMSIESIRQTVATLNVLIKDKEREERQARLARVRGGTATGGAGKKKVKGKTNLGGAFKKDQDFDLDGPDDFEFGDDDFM

Key:
TAP-tagged eRF3 (yeast) = TAP-tagged eRF3 (yeast) (UniProt P05453); assay: pull-down; TAP-tagged chromosomal alleles; cells treated with 1% HCHO before harvest; WCE (1 mg protein) in buffer B (50 mM Tris-HCl pH 7.6, 150 mM NaCl, 0.05% Tween 20) with or without 0.1 mg/ml RNase A; IgG Sepharose 6 Fast Flow beads, 2 h at 4°C; eluted by boiling in SDS buffer or by TEV …; untagged wt strain as control; Western analysis
Myc-tagged RLI1 (yeast) = Myc-tagged RLI1 (yeast) (UniProt Q03195); assay: co-IP; WCE of yeast YDH353 (chromosomal Myc-tagged RLI1), 500 µg total protein, 1 µl mouse anti-Myc-Tag IgG, with or without antibody; lysis in buffer A (30 mM HEPES pH 8.8, 20 mM KAc, 3 mM magnesium acetate, 1 mM DTT, 1% Nonidet P-40); Western analysis

## RPS0A (from UniProt P32905 1-252)
TAP-tagged eRF3 (yeast)
  binding: no binding
Myc-tagged RLI1 (yeast)
  binding: no binding

## eIF1 (from UniProt P32911 1-108)
TAP-tagged eRF3 (yeast)
  binding: no binding

## eIF3j/HCR1 (from UniProt Q05775 1-265)
Myc-tagged RLI1 (yeast)
  binding: binds
